In PMC10567836:
Results are given in words; binding and its absence hold for the method and conditions named. Some results given as binding are weak or reduced against the parent protein; the word gives no strength.

Protein sequences, listed by entry. Tags and fused reporters are not part of them. Lines headed by an entry give the natural chain unless they say otherwise; changes in a name come on top. Residues count along the entry.
UniProt P08575: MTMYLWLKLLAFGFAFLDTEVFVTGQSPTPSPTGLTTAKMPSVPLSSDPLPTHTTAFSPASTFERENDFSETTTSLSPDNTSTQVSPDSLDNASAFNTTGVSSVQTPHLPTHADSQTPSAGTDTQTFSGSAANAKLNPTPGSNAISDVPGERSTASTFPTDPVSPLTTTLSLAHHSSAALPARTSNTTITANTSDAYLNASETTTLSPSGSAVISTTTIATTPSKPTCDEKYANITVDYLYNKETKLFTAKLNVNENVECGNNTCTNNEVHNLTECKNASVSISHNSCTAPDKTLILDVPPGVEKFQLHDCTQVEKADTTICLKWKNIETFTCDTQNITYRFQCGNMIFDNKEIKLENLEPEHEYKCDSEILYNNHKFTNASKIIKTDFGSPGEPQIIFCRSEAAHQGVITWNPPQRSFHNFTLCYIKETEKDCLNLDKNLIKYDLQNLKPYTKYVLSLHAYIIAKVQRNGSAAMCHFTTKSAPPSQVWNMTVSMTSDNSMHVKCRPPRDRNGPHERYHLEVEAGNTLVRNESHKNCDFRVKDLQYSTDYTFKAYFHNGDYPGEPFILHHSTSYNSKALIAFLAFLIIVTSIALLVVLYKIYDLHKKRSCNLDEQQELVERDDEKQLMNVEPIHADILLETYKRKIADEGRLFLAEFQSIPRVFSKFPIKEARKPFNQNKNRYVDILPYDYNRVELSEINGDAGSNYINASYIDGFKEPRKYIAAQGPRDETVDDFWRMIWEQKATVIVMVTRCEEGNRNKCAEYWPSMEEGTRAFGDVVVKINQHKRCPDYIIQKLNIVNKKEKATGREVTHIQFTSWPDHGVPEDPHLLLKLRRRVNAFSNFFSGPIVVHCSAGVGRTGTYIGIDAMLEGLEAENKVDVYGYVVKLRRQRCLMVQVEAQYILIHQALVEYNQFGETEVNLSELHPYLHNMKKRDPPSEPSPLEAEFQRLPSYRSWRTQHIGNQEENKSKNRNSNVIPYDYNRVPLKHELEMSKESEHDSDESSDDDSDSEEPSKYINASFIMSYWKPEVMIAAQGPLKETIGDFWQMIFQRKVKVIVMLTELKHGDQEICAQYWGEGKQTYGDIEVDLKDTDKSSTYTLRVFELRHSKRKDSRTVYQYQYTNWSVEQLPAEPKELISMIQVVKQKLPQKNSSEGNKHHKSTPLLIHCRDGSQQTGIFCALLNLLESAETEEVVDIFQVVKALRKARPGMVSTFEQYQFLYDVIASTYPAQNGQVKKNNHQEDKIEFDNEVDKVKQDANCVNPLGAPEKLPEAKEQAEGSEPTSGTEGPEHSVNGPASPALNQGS
human CD45-ABC isoform on transfected mouse 300-19 cells: residues 26-1306 of P08575

Columns and labels:
[1] = target: human CD45-ABC isoform on transfected mouse 300-19 cells (human) (UniProt P08575); test: flow cytometry on cells; purified sec49K-His (0.11 µg) or UL11-Fc (1 µg) incubated with porcine PBMC, human PBMC, 300-19 cells and 300-19-CD45-ABC cells; detected with anti-E3/49K or anti-pUL11 mAb and labelled secondary reagents; only the binder purified
[2] = target: T1, HCMV protein pUL11 expressed on porcine L23 cells (human cytomegalovirus (HCMV) strain Merlin) (UniProt Q6SWB9); test: flow cytometry on cells; purified soluble CD45-His incubated with L23-E3/49K and L23-UL11 cells; bound protein detected with PE-conjugated anti-human CD45 mAb (HI30); several concentrations; only the binder purified
T1 sequence: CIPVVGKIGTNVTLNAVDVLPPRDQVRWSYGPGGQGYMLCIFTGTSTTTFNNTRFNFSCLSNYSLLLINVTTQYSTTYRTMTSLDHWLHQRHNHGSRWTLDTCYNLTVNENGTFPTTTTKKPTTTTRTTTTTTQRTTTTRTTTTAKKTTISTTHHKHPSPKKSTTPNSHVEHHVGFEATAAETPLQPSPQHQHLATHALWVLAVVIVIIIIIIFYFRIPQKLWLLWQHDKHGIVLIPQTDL

Substance | binding [1] | binding [2]
UL11-Fc fusion protein (predicted extracellular domain of pUL11 fused to the Fc domain of human IgG) (from UniProt Q6SWB9 32-224) | binds | –
Purified human CD45-His protein (soluble CD45) (from UniProt P08575 26-577) (receptor) | – | binds
